Measurements: article PMC6179962, “POLE3-POLE4 Is a Histone H3-H4 Chaperone that Maintains Chromatin Integrity during DNA Replication” (Molecular Cell, 2018)
These are yes or no findings as the source states them, for the method shown. In cells and extracts the contact can be indirect. Binding calls can cover weak binding; strength is not graded here.

Chains of the proteins cited; added tags and fusions are not shown. Lines headed by an entry give the natural chain unless they say otherwise; changes in a name come on top.
UniProt Q9NRF9: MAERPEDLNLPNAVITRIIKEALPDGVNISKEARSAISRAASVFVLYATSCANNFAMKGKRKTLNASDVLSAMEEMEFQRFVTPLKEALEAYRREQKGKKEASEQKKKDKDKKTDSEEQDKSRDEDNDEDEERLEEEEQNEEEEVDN

Molecular target: FLAG-tagged POLE3ΔC (human) (UniProt Q9NRF9)
Assay: co-IP; POLE3ΔC-expressing HeLa TRex cells (Figure S6H); fraction not told

binding: binds
B1: endogenous POLE4 (protein, UniProt Q9NR33 1-117)
chain: MAAAAAAGSGTPREEEGPAGEAAASQPQAPTSVPGARLSRLPLARVKALVKADPDVTLAGQEAIFILARAAELFVETIAKDAYCCAQQGKRKTLQRRDLDNAIEAVDEFAFLEGTLD
